Data set [1] concerns SpiHIF-1alpha (SpiHIFα) (Stylophora pistillata). In words: competition with a labelled probe. The settings on record: 10 mM Tris pH 7.5, 50 mM KCl, 5 mM MgCl2, 1 mM DTT, 0.05% NP-40, 2.5% glycerol, 1 ug poly(dI-dC), 3 ug nuclear extract, 2 nM probe, 23 C, 20 min, protein in an extract, unlabeled as competitor.
For data set [2] the test system is unchanged. Put plainly: EMSA supershift. The settings on record: nuclear extract from dark-exposed coral, anti-SpiHIFα, poly(dI-dC); 10 mM Tris pH 7.5, 50 mM KCl, 5 mM MgCl2, 1 mM DTT, 0.05% NP-40, 2.5% glycerol, 1 ug poly(dI-dC), 3 ug nuclear extract, 2 nM probe, 23 C, 20 min; protein in an extract; label: 5'-biotin (probe), unlabeled as competitor. Background: A gel shift assay detects complexes by their altered migration in electrophoresis.

Construct, isoform or probe ends are uncertain for at least one entry. Where cells or extracts were used, other partners may take part. For part of these data: A negative result means that nothing was seen under these conditions.

As to “GCCCTAAAAGCTGTCTCA (double strand) [M18 (mutant HRE)]”, the binding result in data set [1] (200-fold excess unlabeled M18 against biotin-W18, did not compete or prevent the supershift) was “no binding”.
Regarding “GCCCTACGTGCTGTCTCA (double strand) [W18 (wild-type HRE)]”, the binding result is “binds” in data set [1] (200-fold excess unlabeled W18 against biotin-W18, prevented the supershift, label: 5'-biotin (probe)) and “binds” in data set [2].

Source of the values: PMC5695583.
